Some entries share one result that the patent states for a list of compounds.
Tested on: M. smegmatis
Experiment: Microplate Alamar Blue Assay (MIC, liquid culture)
Format: cell-based
Experimental: The culture was diluted to OD600=˜0.02 in LB liquid media and added to 96-well plates at a final volume of 100 μL, with added inhibitor concentrations in two-fold dilutions. Perimeter wells were filled with sterile water. After 24 hours at 37° C. in a shaking incubator, 10 μL of the Alamar Blue reagent was added to each well. The plate was incubated for an additional 4 hours at 37° C., at which point fluorescence emission at 585 nm was measured using a plate reader. The lowest inhibitor concentration at which 99% or greater growth inhibition was observed was determined to be the MIC.

Compound | Enhancement in growth inhibition compared to carboxylic acid precursor 1
Cc1ccc(S(=O)(=O)NC(=O)C(Cc2ccc(I)cc2)Nc2nc(-c3ccc(Cl)c(Cl)c3)cs2)cc1 (stereo not drawn) [Compound 7, 2-((4-(3,4-dichlorophenyl)thiazol-2-yl)amino)-3-(4-iodophenyl)-N-tosylpropanamide] | at least a four-fold enhancement
O=C(NS(=O)(=O)c1ccc(Cl)cc1)C(Cc1ccc(I)cc1)Nc1nc(-c2ccc(Cl)c(Cl)c2)cs1 (stereo not drawn) [Compound 8, N-((4-chlorophenyl)sulfonyl)-2-((4-(3,4-dichlorophenyl)thiazol-2-yl)amino)-3-(4-iodophenyl)propanamide] | at least a four-fold enhancement
O=C(NS(=O)(=O)c1ccccc1[N+](=O)[O-])C(Cc1ccc(I)cc1)Nc1nc(-c2ccc(Cl)c(Cl)c2)cs1 (stereo not drawn) [Compound 9, 2-((4-(3,4-dichlorophenyl)thiazol-2-yl)amino)-3-(4-iodophenyl)-N-((2-nitrophenyl)sulfonyl)propanamide] | at least a four-fold enhancement
